From ChEMBL document CHEMBL3988442, “University of Dundee, Small-Polar-MMV Screening Library” (2021).

Each number is a percent effect as filed.
The record does not define 0% and 100%; most values in the screen are far below 50% and negative numbers occur (in some assays of this library far below -100).
The compounds are a random part of those screened.
Two or more numbers in one place are separate tests of the same structure; such repeats can differ widely.

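Viability assay of Plasmodium falciparum sporozoites; the read-out is not stated. The concentration is filed as 10 mM, unlikely as a test dose, so the dose is not known. Direction is inferred from retests: higher values go with lower viability. Strong results were mostly tested again. About 34,000 compounds were tested under these conditions; 0.84% (about 280) showed 50% or more at least once.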

For CCCOc1cccc(NS(=O)(=O)c2cc(C(=O)O)cs2)c1 the result was -15.46% & 18.64% & -17.89%. CC(=O)N1CCCN(C(=O)NC(C)c2csc3ccccc23)CC1 (stereo not drawn) read 3.7%. CS(=O)(=O)N1CC(=O)N(CCCc2ccccc2)CC(O)C1 (stereo not drawn) read 15.02%. Result for [H][C@]12C[C@H](NC(=O)c3ccn(C)n3)[C@@]1([H])CN(S(=O)(=O)c1ccc(C)cc1)C2 was -3.436%. NC(=O)c1cccc(NC(=O)CSc2ccc3c(c2)CCC3)c1 read -14.6%.

COCC[C@]1(O)CCN(C(=O)CCn2c(C)cccc2=O)C[C@H]1C gave 12.46%. Cc1nc2cc(-c3nccn3C)nn2c(N2CCCC(CO)C2)c1C (stereo not drawn) gave 14.69%. For CN(Cc1ccccc1)C(=O)CN1CCCC(Cn2cncn2)C1 (stereo not drawn) the result was 4.876%. COCCc1noc(CN2CCCCC2Cn2cc(C)cn2)n1 (stereo not drawn) gave -9.662%. CCCS(=O)(=O)N1CCC(n2nc(-c3cc(C)oc3C)ccc2=O)CC1 gave -0.2558%.

For C[C@@H]1CN(CC(C)(C)N2CCOCC2)CC[C@@]1(O)C1CCOCC1 the result was -6.462%. For COCC1c2c(cnn2CC2CC2)CCN1Cc1cccs1.O=C(O)C(F)(F)F.O=C(O)C(F)(F)F (stereo not drawn) the result was 5.087%. For Cc1ccoc1CNC(C)c1nnc2n1CCCC2 (stereo not drawn) the result was 7.692%. Result for CNc1snc(C)c1C(=O)N1CCCC(n2nc(C)nc2C)C1 (stereo not drawn) was 4.864%. With CS(=O)(=O)N1CCCC(C(=O)Nc2cnn(Cc3ccc(F)cc3)c2)C1 (stereo not drawn) the screen gave -5.072%.

Result for Cc1csc(N2CCN(C(=O)CCCNc3ncccn3)CC2)n1 was 1.288%. CC(C)CNC(=O)C1=NOC2(CCN(Cc3ccc(C(C)C)cc3)C2)C1 (stereo not drawn) gave 7.279%. Result for Cc1ccc(CNC2CC3(CCN(CCO)CC3)c3ccccc32)s1.O=C(O)C(F)(F)F.O=C(O)C(F)(F)F (stereo not drawn) was 0.1751%. CCn1ccnc1CN1CCCN(C(=O)c2ccsc2)CC1 gave -4.179%. COCC1c2nnn(C)c2CCN1C(=O)COc1ccccc1C (stereo not drawn) read 2.627%.

With Cc1csc(CNC(=O)N(C)Cc2ccc3c(c2)OCCO3)n1 the screen gave 26.53% & -6.05% & -9.978%. Result for Cc1noc(C)c1CN1CCc2ncnc(-c3cnn(C)c3)c2CC1.O=C(O)C(F)(F)F was 8.347%. CC(C)NC(=O)c1nnn(-c2cccc(C(F)(F)F)c2)c1C1CC1 read -0.6719%. Result for Cc1nc2c(c(NC(C)C)n1)CCN(C(=O)CCO)CC2 was 15.96%. For N#CC1=C(N)Nn2c(nnc2-c2ccccc2Br)S1 the result was -4.269%.

Cc1nc(C)n(CC2CCCN(CCc3ccccn3)C2)n1 (stereo not drawn) read -5.251%. For O=C(O)C(F)(F)F.O=C(O)C(F)(F)F.[H][C@@]12CN(C(=O)c3ccccn3)C[C@]1([H])OCCN2C(C)C the result was 12.25%. Cc1ccsc1C(=O)N1CC2CC1(C(=O)NCC1CC1)C2 read 11.12%. With CCC(CC)C(CNC(=O)Nc1cc(C)nn1C)N1CCOCC1 (stereo not drawn) the screen gave 2.954% & 7.648% & -8.555%. Result for CCCC(Nc1nc(COCC)nc2c1CCNCC2)c1nccn1C (stereo not drawn) was -0.9858%.

CCN(C(=O)c1ccc2nnc(C3CCN(S(C)(=O)=O)C3)n2c1)C(C)C (stereo not drawn) gave 4.514%. COc1ccccc1OCC(=O)NCC(O)(c1ccccc1)C1CC1 (stereo not drawn) gave 2.007%. With COCc1nc(Cn2ncn3cccc3c2=O)no1 the screen gave -1.205%. Result for O=C(O)C(F)(F)F.O=C(O)C(F)(F)F.[H][C@@]12CN(CCN3CCCC3)CC[C@]1([H])CN(c1cnccn1)C2 was 0.8439%. For Cc1noc(C)c1CN(C)C(=O)c1ccc(C(F)(F)F)nc1 the result was 12.82%.

Result for CN1CCCC1c1ccnc2nccn12 (stereo not drawn) was 7.315%. For Cn1ccc(C(=O)N2CCCC2c2cc[nH]n2)n1 (stereo not drawn) the result was 8.149%. O=C(O)C(F)(F)F.[H][C@]12CCN(S(=O)(=O)c3cccs3)C[C@@]1([H])OCCN(C)C2 read 16.81%. Nc1c(N2CCOCC2)ncnc1N1CCOCC1 read -23.19%. Cc1cc(C2CCCN(C(=O)c3ccc(C)[nH]c3=O)C2)n[nH]1 (stereo not drawn) read -3.2%.

COc1ccc(CN(C)c2ccc(-c3nccn3C)nn2)cc1OC read 63.95% & 77.57%. With CCOC1COC2(CCN(CC3CCOCC3)CC2)C1.O=C(O)C(F)(F)F (stereo not drawn) the screen gave -0.3376%. Result for CCc1ncc2c(n1)CN(Cc1nc(C)c(C)o1)CC2 was -3.188%. With Cc1nc(C2CCCN2C(=O)c2cc3c(s2)CCC3)no1 (stereo not drawn) the screen gave 8.867% & -21.12% & -39.11%. For CC(C)c1cc(CN2CCC(N)CC2)no1 the result was 9.474% & -16.93% & -5.1%.

For O=C(O)C(F)(F)F.[H][C@@]12C[C@H](C(=O)NC)CN(Cc3cccc4ccccc34)[C@]1([H])CCO2 the result was -5.475%. Result for CC(C)NC(=O)N1CCOC2(CCCNC2)C1 (stereo not drawn) was 2.053%. Result for Cl.Cl.NCC(=O)N1CCCC(c2cncc(Nc3ncccn3)n2)C1 (stereo not drawn) was 5.806%. For O=C(O)C(F)(F)F.O=C(c1ccc[nH]1)N1CCc2onc(COc3cccnc3)c2C1 the result was -4.725%. Cc1cnn(CCNCc2ccc(OCc3ccncc3)cc2)c1 gave 40.58% & -11.16% & -4.415%.

For COc1ccnc(N2CCN(C(=O)COCC(F)(F)F)CC2)n1 the result was 13.91%. Cc1cc(NC(=O)CN2CCc3cnc(C(C)C)nc3C2)on1 gave 9.596%. Result for CC(NC(=O)CNS(C)(=O)=O)c1ccccc1Oc1ccccc1 (stereo not drawn) was 9.257%. Result for Cc1ccc2nc(CN(C)Cc3n[nH]c4c3CCCCC4)[nH]c2c1C was 5.965%. Result for Cn1cc(-c2csc(CN3CCOCC3)n2)cn1 was -16.57%.

For CCCc1c(C(=O)N2CCN(c3cnccn3)CC2)cnn1C the result was -0.9879%. Cc1cnc(CN(Cc2ccccc2)CC2CCOCC2)cn1 gave -4.45%. CN(C)C(=O)COCC1CN(C2CCC2)Cc2ncn(C)c21.O=C(O)C(F)(F)F.O=C(O)C(F)(F)F (stereo not drawn) gave 5%. CCNC(c1cccnc1)c1cc(C)cc(C)c1 (stereo not drawn) gave -16.71%. For CC(C)Oc1ccc(CNC(=O)CN(C)S(C)(=O)=O)cc1F the result was 0.983%.

Repeated from the top, 5 entries:

{"compound": "CCCOc1cccc(NS(=O)(=O)c2cc(C(=O)O)cs2)c1", "percent effect": "-15.46 & 18.64 & -17.89"}
{"compound": "CC(=O)N1CCCN(C(=O)NC(C)c2csc3ccccc23)CC1", "stereo": "stereo not drawn", "percent effect": 3.7}
{"compound": "CS(=O)(=O)N1CC(=O)N(CCCc2ccccc2)CC(O)C1", "stereo": "stereo not drawn", "percent effect": 15.02}
{"compound": "[H][C@]12C[C@H](NC(=O)c3ccn(C)n3)[C@@]1([H])CN(S(=O)(=O)c1ccc(C)cc1)C2", "percent effect": -3.436}
{"compound": "NC(=O)c1cccc(NC(=O)CSc2ccc3c(c2)CCC3)c1", "percent effect": -14.6}